{"sequences": {"note": "Amino acid sequences for entries named in this document (tags omitted).", "UniProt P16371": "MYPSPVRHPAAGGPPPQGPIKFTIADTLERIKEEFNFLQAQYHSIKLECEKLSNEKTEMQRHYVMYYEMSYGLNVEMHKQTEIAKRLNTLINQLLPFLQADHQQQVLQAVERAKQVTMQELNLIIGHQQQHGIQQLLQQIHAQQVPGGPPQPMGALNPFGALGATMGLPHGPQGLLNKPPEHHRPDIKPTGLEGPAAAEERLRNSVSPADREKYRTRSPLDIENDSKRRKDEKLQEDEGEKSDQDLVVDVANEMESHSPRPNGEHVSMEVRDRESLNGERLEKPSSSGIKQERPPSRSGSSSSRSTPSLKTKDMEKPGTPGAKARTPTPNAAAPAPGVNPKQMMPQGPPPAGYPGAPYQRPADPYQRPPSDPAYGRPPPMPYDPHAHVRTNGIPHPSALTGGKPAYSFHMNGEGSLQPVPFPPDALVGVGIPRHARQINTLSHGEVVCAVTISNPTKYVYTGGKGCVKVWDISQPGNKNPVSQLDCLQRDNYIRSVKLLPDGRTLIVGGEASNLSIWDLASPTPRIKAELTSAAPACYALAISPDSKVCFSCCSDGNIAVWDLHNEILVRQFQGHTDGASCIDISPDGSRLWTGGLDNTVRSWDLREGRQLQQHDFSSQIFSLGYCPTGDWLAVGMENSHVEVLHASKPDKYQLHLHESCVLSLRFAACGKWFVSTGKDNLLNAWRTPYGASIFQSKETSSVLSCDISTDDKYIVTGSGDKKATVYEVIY"}, "source": "paper PMC6515119", "molecular_target": "T1, Homeodomain-interacting protein kinase (Hipk) fused N-terminally to the N-terminal fragment of YFP (Drosophila) (UniProt Q9W0Q1)", "T1 sequence": "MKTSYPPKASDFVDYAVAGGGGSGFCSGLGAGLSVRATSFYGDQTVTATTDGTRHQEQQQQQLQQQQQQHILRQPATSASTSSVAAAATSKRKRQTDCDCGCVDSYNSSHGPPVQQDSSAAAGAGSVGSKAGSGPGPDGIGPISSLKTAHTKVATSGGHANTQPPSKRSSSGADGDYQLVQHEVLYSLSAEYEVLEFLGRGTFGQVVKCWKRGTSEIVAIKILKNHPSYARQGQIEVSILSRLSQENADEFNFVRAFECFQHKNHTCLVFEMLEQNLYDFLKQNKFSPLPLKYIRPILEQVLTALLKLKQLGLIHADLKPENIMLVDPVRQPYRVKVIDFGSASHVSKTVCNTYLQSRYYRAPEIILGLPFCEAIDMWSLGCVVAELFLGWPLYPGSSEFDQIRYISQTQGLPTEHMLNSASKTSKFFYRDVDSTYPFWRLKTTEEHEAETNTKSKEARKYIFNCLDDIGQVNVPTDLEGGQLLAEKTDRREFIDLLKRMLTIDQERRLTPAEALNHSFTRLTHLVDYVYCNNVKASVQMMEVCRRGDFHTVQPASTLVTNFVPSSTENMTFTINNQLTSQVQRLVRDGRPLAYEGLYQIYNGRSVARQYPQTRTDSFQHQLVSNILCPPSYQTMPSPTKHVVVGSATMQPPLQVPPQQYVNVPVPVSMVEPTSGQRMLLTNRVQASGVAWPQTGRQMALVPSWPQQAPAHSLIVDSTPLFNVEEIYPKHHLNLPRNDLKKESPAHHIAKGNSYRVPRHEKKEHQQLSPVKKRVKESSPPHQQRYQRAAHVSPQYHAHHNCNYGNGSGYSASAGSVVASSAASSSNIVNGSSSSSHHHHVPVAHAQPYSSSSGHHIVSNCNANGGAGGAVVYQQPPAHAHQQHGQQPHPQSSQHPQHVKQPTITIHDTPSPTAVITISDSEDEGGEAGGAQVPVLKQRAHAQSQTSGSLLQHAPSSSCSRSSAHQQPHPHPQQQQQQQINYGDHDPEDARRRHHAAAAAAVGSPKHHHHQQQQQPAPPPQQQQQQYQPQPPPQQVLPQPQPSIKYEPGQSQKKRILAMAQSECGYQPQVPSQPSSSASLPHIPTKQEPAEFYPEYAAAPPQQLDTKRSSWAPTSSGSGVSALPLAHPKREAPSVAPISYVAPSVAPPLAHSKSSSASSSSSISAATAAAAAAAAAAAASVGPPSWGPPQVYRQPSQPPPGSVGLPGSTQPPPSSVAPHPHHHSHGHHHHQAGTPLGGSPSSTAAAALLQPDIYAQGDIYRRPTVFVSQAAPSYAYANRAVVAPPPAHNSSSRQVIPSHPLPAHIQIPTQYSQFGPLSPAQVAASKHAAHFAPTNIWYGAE", "experiment": "split reporter; BiFC: NYFP and CYFP fusions coexpressed from UAS constructs with MS1096-Gal4 in third larval instar wing imaginal discs; crosses at 25 °C; anti-GFP immunostaining to enhance the YFP signal", "note": "Results are given in words; binding and its absence hold for the method and conditions named. Binding seen in cells or lysates may run through a third protein. Some binding calls cover weakened binding; strength is not graded here. Where a sequence is shown, tags or fusion partners need not be part of it."}
{"substance": "Groucho (Gro) fused to the C-terminal fragment of YFP (from UniProt P16371 1-730)", "values": [{"measurement": "binding", "result": "binds"}]}
